The results in this text go back to PubChem BioAssay AID1487 (National Center for Advancing Translational Sciences (NCATS), 2009).

This test can be described thus: qHTS Assay for Modulators of Lamin A Splicing. The note with it: HeLa LMNA splicing GFP/RFP minigene ratio, 48 h. The gist of the method: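 S3 HeLa cells stably expressing lamin A-EGFP splicing minigene plus DsRed2, 600 cells/well, 48 h compound exposure at 37C. Laser-scanning cytometry; analysed as GFP (500-530 nm)/RFP (575-640 nm) total intensity ratio; 0.5% DMSO vehicle.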
(In general: In qHTS, concentration-response curves come from the screen itself.)

The mark [1] stands for this setting: measured here: GFP splicing reporter channel.
[2] abbreviates: measured here: RFP viability control channel.

“And” between values parts separate entries of the source, which are not always exact repeats. Identical values can stand only once. Some of the results follow. Further columns of the screen follow, without active or inactive calls. Compounds called inactive in the main read-out are mostly missing here. Potencies come from curve fits of mixed quality, noted in brackets.

As for `O=C(CS(=O)c1ccc(C(F)(F)F)cc1[N+](=O)[O-])Oc1ccccc1` (centres undefined), the concentration at half-maximal activity (AC50) under setting [1] was 35.5 µM [falling, single point]. Regarding `CCc1ccc2nc3n[nH]c(N)c3cc2c1`, the AC50 under setting [2] was 11.2 µM [falling, partial curve]. `OCCNCc1cc(Br)ccc1OCc1ccc(F)cc1`: the AC50 under setting [1] was 14.1 µM [falling, single point]. Same read-out and setting: to `Cc1ccccc1C(=O)Nc1ccc(OCc2cc(=O)n3ccccc3n2)cc1` belongs 20 µM [falling, single point]. The same measure, in the same setting: to `Cc1ccc(CCNC(=O)c2c[nH]c3ccc(S(=O)(=O)Nc4ccc(C)cc4C)cc3c2=O)cc1` belongs 28.2 µM [falling, single point]. Consider `COc1ccc2nc(Nc3nc4cc5c(cc4s3)OCCO5)sc2c1`, for which the AC50 under setting [2] was 11.2 µM [rising, single point].

For `Clc1ccccc1N/N=C/c1ccc2c(c1)OCO2`, under setting [1], the concentration at half-maximal activity (AC50) was 35.5 µM [rising, single point]. For the compound `CC(C)OC(=O)/C(=C/c1ccc(Br)cc1)NC(=O)c1ccco1`, the AC50 under setting [2] is 5.62 µM [rising, partial curve, poor fit]. Take `Cc1cccc(NC(=O)CN2C(=O)C(C)Oc3ccccc32)n1` (centres undefined): under setting [1], the AC50 is 25.1 µM [rising, partial curve]. `O=C(CSc1nnc(COc2ccccc2)n1Cc1ccco1)c1ccc(F)cc1`: the AC50 by setting is: under setting [1], 15.8 µM [rising, partial curve]; under setting [2], 12.6 µM [rising, partial curve].

Consider `CC(NC(=O)CCNC(=O)c1ccccc1Cl)C1CC2CCC1C2` (centres undefined), for which the AC50 is 31.6 µM [rising, single point] under setting [1] and 31.6 µM [rising, single point] under setting [2].

As to `O=C(Nc1cccc(F)c1)Nc1ccccn1`, the AC50 under setting [1] was 0.00501 µM [falling, full curve] and the AC50 under setting [2] was 0.00891 µM [falling, full curve]. Take `N#Cc1cccn1-c1nccs1`: the AC50 under setting [2] is 6.31 µM [falling, partial curve]. `O=C(NCCNCc1cccs1)c1ccccc1F`: the AC50 under setting [1] was 0.01 µM [falling, full curve, poor fit]. For the compound `Cc1[nH]c(=O)c(C#N)cc1-c1ccncc1`, the AC50 by setting is: under setting [1], 0.0562 µM [falling, full curve, poor fit]; under setting [2], 14.1 µM [falling, single point].

Regarding `Cc1ccccc1N1CCN(Cc2c[nH]c3ccccc23)CC1`, the AC50 under setting [2] is 14.1 µM [rising, single point]. Take `COC(=O)CCNC(=O)NC(CCC(C)C)c1c(-n2cccc2)sc2c1CCN(C)C2` (centres undefined): under setting [2], the AC50 was 0.0224 µM [rising, full curve, poor fit]. In the case of `COc1cccc(N2CCN(c3ncnc4c3[nH]c3ccccc34)CC2C)c1` (centres undefined), the AC50 was 35.5 µM [falling, single point] under setting [1] and 28.2 µM [falling, single point] under setting [2].

`S=C(Nc1ccc(Cl)c(Cl)c1)NC1CCN(Cc2ccccc2)CC1`: the AC50 was 11.2 µM [rising, single point] under setting [1] and 25.1 µM [rising, single point] under setting [2]. Regarding `CC(C)C(NC(=O)C(NC(=O)C1OC2OC(C)(C)OC2C2OC(C)(C)OC12)C(C)C)C(=O)O` (centres undefined), the AC50 under setting [1] was 8.91 µM [falling, partial curve, poor fit]. As for `CCOC(=O)C1=C(C)NC(C)=C(C(=O)OCC)C1C`, the AC50 under setting [2] was 35.5 µM [rising, single point].

Regarding `OCCCNC(=S)Nc1ccc(Oc2ccccc2)cc1`, the AC50 under setting [1] was 5.01 µM [rising, partial curve] and the concentration at half-maximal activity (AC50) under setting [2] is 14.1 µM [rising, single point]. Regarding `O=C(OCC(=O)N1CCc2ccccc21)c1cncc(Br)c1`, the AC50 runs as follows: under setting [1], 0.00501 µM [rising, full curve, poor fit]; under setting [2], 0.00447 µM [rising, full curve, poor fit]. Turning to `Cc1cc([N+](=O)[O-])nn1CCCC(=O)Nc1cccnc1Cl`, the AC50 under setting [2] was 10 µM [falling, partial curve]. The same measure, in the same setting: to `O=C(c1ccco1)N1CCN=C1SCc1cccnc1` belongs 31.6 µM [rising, single point]. The same measure, in the same setting: to `COc1cccc(/C=N/NC(=O)C(C)n2nc(C)c([N+](=O)[O-])c2C)c1O` (centres undefined) belongs 8.91 µM [rising, partial curve]; to `Cc1cc(CSc2ccccc2)ccc1NC(=O)c1ccc(CN2CCOCC2)cc1`, 0.501 µM [rising, full curve]. `C#C[C@]1(O)CC[C@H]2[C@@H]3CCc4cc(OC5CCCC5)ccc4[C@H]3CC[C@@]21C`: the AC50 is 25.1 µM [falling, partial curve] under setting [1]; 501 nM [falling, partial curve, poor fit] and 112 nM [rising, full curve, poor fit] under setting [2]. Turning to `Cc1cc(C)nc(N(C#N)CCOc2ccccc2)n1`, the AC50 under setting [1] was 6.31 µM [rising, partial curve, poor fit]. As for `COc1cc(NC(=O)COC(=O)c2ccc(C)c(S(=O)(=O)N3CCCCC3)c2)c(C)cc1[N+](=O)[O-]`, the AC50 under setting [2] was 22.4 µM [rising, single point].

`CCn1c(SCC(=O)N2CCN(c3ccccc3)CC2)nnc1-c1c[nH]c2ccccc12`: the AC50 under setting [2] was 11.2 µM [rising, partial curve]. As to `CCOc1ccc(CNC(=O)c2cnc3sc(N4CCOCC4)nn3c2=O)cc1`, the AC50 under setting [1] was 0.224 µM [rising, full curve, poor fit]. As to `CCn1cc(C(=O)N2CCN(c3cccc(Cl)c3)CC2)c2cc(OC)c(OC)cc2c1=O`, the AC50 under setting [2] is 8.91 µM [rising, partial curve]. Still for that read-out and setting: the value for `COc1ccc(NC(C)=O)cc1CNC(=O)COc1c(C)c(C)cc(C)c1C` was 14.1 µM [rising, single point]. As to `O=c1cnn(-c2ccccc2)c(-c2ccccc2)c1`, the AC50 under setting [1] was 8.91 µM [rising, partial curve, poor fit] and the AC50 under setting [2] was 12.6 µM [rising, single point]. Regarding `Cc1ccc2c(C)nc(Nc3nc(CSc4nc5ccccc5[nH]4)cc(=O)[nH]3)nc2c1`, the concentration at half-maximal activity (AC50) by setting is: under setting [1], 11.2 µM [falling, partial curve]; under setting [2], 15.8 µM [falling, partial curve]. On to `Nc1c(C(=O)NCc2ccc(Cl)cc2)sc2nc3c(c(C(F)(F)F)c12)CCC3`, for which the AC50 by setting is: under setting [1], 35.5 µM [rising, single point]; under setting [2], 35.5 µM [rising, single point].

For orientation: AC50 means the concentration giving half of the maximal activity seen.
